Compound in the assay: Nc1nc2c(ncn2[C@@H]2O[C@H](COP(=O)(O)OP(=O)(O)OP(=O)(O)O)[C@@H](O)[C@H]2O)c(=O)[nH]1 [guanosine triphosphate]
Briefly: NP40-soluble protein abundance relative to vehicle (solubility fold change) (ratio); higher = more soluble protein in presence of GTP. The method, then: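 Solubility proteome profiling in Jurkat crude lysate. Lysate was treated with Mg-GTP (0.1-10 mM) for 10 min at room temperature and 3 min at 37 °C, then solubilised with 0.8% NP40 and benzonase, followed by ultracentrifugation. Proteins were quantified by TMT10 LC-MS/MS; the value is the NP40-soluble abundance relative to the NP40-processed vehicle, from 3 independent experiments.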

The chains behind the UniProt entries cited, without tags or fusion partners. Where a name states a change or a piece, a line headed by the entry shows the natural chain unless it says otherwise.
UniProt Q9H2G2: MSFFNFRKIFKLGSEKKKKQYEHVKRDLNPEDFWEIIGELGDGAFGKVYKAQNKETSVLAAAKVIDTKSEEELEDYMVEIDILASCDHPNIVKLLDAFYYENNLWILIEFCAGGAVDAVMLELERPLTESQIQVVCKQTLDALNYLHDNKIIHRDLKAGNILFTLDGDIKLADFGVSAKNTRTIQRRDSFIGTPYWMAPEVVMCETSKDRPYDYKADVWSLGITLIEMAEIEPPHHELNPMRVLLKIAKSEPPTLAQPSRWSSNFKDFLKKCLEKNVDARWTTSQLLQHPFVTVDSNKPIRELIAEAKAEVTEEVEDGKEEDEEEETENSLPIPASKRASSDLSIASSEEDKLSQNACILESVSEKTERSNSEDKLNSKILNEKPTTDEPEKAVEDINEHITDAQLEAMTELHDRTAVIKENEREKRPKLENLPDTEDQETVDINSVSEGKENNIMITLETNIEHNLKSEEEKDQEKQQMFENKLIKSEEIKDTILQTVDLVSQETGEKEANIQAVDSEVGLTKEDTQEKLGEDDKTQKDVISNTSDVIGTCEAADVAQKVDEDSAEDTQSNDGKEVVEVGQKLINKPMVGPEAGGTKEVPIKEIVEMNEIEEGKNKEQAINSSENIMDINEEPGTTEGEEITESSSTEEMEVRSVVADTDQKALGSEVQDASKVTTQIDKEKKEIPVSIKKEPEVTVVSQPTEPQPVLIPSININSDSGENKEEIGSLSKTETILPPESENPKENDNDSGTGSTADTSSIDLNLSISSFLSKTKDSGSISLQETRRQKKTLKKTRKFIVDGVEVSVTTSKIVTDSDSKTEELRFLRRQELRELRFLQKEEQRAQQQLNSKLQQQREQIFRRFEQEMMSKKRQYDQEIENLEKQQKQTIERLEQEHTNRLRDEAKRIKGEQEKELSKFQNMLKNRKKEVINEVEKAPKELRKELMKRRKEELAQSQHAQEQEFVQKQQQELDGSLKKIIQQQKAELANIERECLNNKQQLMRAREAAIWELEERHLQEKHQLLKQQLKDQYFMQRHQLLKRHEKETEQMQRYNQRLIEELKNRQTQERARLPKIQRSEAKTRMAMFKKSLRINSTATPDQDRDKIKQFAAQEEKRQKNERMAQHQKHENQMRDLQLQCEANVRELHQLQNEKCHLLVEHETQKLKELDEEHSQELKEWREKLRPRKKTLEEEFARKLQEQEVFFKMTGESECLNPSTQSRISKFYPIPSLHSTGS
UniProt Q9C0B0: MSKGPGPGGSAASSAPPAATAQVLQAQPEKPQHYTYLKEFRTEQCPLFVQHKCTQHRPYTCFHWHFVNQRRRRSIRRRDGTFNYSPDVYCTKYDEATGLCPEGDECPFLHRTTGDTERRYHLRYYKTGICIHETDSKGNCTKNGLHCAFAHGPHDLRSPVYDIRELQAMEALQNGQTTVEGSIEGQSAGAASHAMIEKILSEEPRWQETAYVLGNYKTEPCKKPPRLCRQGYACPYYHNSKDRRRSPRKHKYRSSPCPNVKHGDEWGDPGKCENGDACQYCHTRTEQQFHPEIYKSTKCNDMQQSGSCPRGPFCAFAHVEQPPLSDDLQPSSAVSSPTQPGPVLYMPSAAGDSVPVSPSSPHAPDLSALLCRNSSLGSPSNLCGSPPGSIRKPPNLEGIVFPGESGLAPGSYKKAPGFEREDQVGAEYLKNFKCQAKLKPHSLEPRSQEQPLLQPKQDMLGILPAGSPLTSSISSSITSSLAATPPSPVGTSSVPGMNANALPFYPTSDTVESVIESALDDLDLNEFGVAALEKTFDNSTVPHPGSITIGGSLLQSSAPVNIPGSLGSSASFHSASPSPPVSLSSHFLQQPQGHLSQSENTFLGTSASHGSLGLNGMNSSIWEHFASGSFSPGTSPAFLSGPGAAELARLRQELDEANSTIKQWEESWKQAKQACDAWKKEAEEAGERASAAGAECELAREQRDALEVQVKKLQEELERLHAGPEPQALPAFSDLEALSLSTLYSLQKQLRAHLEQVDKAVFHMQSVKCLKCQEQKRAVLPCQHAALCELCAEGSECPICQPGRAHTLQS
UniProt Q9NT62, whole entry: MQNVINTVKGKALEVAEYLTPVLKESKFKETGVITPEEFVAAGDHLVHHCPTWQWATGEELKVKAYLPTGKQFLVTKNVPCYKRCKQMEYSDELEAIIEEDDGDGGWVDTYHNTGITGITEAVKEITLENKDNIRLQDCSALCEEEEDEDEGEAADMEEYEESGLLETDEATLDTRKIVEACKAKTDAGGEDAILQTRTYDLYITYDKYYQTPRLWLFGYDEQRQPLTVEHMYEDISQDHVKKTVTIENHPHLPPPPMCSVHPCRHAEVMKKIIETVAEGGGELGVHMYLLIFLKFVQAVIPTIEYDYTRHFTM
UniProt Q9HBH0: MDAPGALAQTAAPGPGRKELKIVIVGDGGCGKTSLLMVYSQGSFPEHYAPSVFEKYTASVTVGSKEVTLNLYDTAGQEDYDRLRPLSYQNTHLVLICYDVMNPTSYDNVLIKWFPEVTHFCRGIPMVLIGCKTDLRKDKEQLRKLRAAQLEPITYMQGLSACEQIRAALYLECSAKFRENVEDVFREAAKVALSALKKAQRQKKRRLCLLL
UniProt Q9NQH7: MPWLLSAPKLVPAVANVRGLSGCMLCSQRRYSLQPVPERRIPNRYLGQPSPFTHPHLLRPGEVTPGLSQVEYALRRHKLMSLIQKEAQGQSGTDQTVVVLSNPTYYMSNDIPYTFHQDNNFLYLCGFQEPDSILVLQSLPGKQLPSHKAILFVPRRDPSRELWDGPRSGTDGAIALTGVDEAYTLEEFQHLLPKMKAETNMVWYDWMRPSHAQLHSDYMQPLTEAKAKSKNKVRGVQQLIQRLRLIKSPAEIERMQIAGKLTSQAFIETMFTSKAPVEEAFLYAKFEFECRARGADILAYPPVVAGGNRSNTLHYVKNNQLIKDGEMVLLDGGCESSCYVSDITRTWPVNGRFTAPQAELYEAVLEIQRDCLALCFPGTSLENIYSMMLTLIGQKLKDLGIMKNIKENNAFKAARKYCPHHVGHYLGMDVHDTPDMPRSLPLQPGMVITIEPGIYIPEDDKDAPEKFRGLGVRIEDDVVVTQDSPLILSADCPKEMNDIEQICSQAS

± gives the standard deviation of the averaged measurements. Some of the results follow.

For UniProt Q9H2G2 and related entries, the NP40-soluble protein abundance runs as follows: (concentration: 0.1mM) 0.944 ± 0.073; (concentration: 0.5mM) 0.944 ± 0.069; (concentration: 1mM) 0.924 ± 0.065; (concentration: 2mM) 0.893 ± 0.081; (concentration: 4mM) 0.887 ± 0.083; (concentration: 6mM) 0.897 ± 0.088. Also, the NP40-soluble protein abundance reads like this: (concentration: 8mM) 0.925 ± 0.064; (concentration: 10mM) 0.901 ± 0.073.

For the target UNK (UniProt Q9C0B0), the NP40-soluble protein abundance runs as follows: (concentration: 0.1mM) 0.998 ± 0.038; (concentration: 0.5mM) 1.04 ± 0.021; (concentration: 1mM) 1.07 ± 0.011; (concentration: 2mM) 1.08 ± 0.032; (concentration: 4mM) 1.09 ± 0.021; (concentration: 6mM) 1.113 ± 0.0062. The NP40-soluble protein abundance runs as follows: (concentration: 8mM) 1.15 ± 0.093; (concentration: 10mM) 1.18 ± 0.061.

Consider UniProt Q9NT62 and related entries, for which the NP40-soluble protein abundance reads like this: (concentration: 0.1mM) 0.914 ± 0.083; (concentration: 0.5mM) 0.904 ± 0.066; (concentration: 1mM) 0.922 ± 0.095; (concentration: 2mM) 0.882 ± 0.1; (concentration: 4mM) 0.894 ± 0.12; (concentration: 6mM) 0.844 ± 0.079. Besides, the NP40-soluble protein abundance is, setting by setting: (concentration: 8mM) 0.89 ± 0.11; (concentration: 10mM) 0.903 ± 0.091.

Take RHOF (UniProt Q9HBH0): the NP40-soluble protein abundance reads like this: (concentration: 0.1mM) 1.13 ± 0.1; (concentration: 0.5mM) 1.09 ± 0.1; (concentration: 1mM) 1.02 ± 0.11; (concentration: 2mM) 1.05 ± 0.13; (concentration: 4mM) 1.08 ± 0.025; (concentration: 6mM) 1.01 ± 0.087. The NP40-soluble protein abundance stood at 0.991 ± 0.033 (concentration: 8mM) and 1.01 ± 0.072 (concentration: 10mM).

Regarding UniProt Q9NQH7 and related entries, the NP40-soluble protein abundance amounted to 1.07 ± 0.032 (concentration: 0.1mM); 1.07 ± 0.11 (concentration: 0.5mM); 0.946 ± 0.033 (concentration: 1mM); 0.946 ± 0.059 (concentration: 2mM); 0.969 ± 0.035 (concentration: 4mM); 0.942 ± 0.085 (concentration: 6mM). Besides, the NP40-soluble protein abundance is, setting by setting: (concentration: 8mM) 0.886 ± 0.071; (concentration: 10mM) 0.931 ± 0.071.

The record behind these values is the supplement of paper PMC6411743.
